# Biological target: T1, sigma receptor from guinea pig brain (Cavia porcellus, UniProt Q60492)
# Protein sequences, listed by entry. Tags and fused reporters are not part of them.
# UniProt Q60492, whole entry: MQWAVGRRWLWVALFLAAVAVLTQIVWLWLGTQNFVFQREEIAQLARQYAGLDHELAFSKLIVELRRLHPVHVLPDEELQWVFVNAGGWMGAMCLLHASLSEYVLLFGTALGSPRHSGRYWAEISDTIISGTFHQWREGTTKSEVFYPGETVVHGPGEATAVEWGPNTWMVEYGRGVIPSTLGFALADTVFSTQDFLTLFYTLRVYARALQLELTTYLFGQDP
# T1 construct: from tissue; host or cells: guinea pig brain membranes
# Test: [3H]AZ-DTG binding and photoaffinity labeling of the sigma receptor
# Conditions: 10 uM
# Protocol: The filters were then irradiated with long-wavelength UV light for a 15 minute period. Filter-bound proteins were solubilized with 50 mM Tris pH 7.4, 0.1% sodium dodecyl sulfate. Solubilized proteins were subjected to SDS-polyacrylamide gel electrophoresis.
smiles,measurement,value
CN1CC[C@]23c4c5ccc(O)c4O[C@H]2[C@@H](O)C=C[C@H]3[C@H]1C5 [morphine],effect on [3H]AZ-DTG labeling of the 29 kD polypeptide,unaffected

# From patent US5574070A, “Substituted guanidines having high binding to the sigma receptor and the use thereof” (priority 1993, dated 1996)
